We go through one molecule from PMC10371073.

The chains behind the UniProt entries cited, without tags or fusion partners.
UniProt P35637: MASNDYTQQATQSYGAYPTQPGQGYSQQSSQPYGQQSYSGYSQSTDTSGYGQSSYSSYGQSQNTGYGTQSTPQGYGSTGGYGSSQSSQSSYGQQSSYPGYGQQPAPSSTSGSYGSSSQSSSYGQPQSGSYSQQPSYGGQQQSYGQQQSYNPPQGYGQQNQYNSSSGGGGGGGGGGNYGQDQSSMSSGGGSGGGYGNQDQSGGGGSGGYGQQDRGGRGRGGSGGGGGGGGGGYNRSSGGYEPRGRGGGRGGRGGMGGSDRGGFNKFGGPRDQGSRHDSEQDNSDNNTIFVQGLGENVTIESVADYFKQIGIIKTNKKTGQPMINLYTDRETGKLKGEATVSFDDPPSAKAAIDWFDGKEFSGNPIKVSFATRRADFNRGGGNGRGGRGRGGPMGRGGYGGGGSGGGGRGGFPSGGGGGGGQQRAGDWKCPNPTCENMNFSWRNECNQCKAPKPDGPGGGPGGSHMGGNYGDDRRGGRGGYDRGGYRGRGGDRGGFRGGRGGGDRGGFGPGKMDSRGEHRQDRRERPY

Test [1] has as its target Fused in Sarcoma (FUS), endogenous wild type (human (endogenous in HEK293 and human fibroblasts)) (UniProt P35637). In words: proximity ligation; in situ Duolink PLA on fixed, permeabilised cells (control and ALS patient-derived fibroblasts; iPSC-derived motor neurons), primary antibodies 1:100 overnight; with or without glucose oxidase (GO).
The target is the same in test [2]. In words: co-IP; endogenous FUS precipitated with anti-FUS antibody and protein A/G PLUS agarose beads from HEK293 lysate (0.2% NP-40, 150 mM NaCl, 25 mM Tris-HCl, 0.1% SDS), immunoblot for Lig3; cells with or without glucose oxidase (GO). (In general: In western blotting, separated proteins are transferred to a membrane and probed.)

These are yes or no findings as the source states them, for the method shown. Binding seen in cells or lysates may run through a third protein. Some binding calls cover weakened binding; strength is not graded here.

B1: DNA Ligase IIIα (Lig3), mitochondrial form mtLig3 (enzyme, UniProt P49916 43-1009)
chain: LLHGHPLFLRRKPVLSFQGSHLRSRATYLVFLPGLHVGLCSGPCEMAEQRFCVDYAKRGTAGCKKCKEKIVKGVCRIGKVVPNPFSESGGDMKEWYHIKCMFEKLERARATTKKIEDLTELEGWEELEDNEKEQITQHIADLSSKAAGTPKKKAVVQAKLTTTGQVTSPVKGASFVTSTNPRKFSGFSAKPNNSGEAPSSPTPKRSLSSSKCDPRHKDCLLREFRKLCAMVADNPSYNTKTQIIQDFLRKGSAGDGFHGDVYLTVKLLLPGVIKTVYNLNDKQIVKLFSRIFNCNPDDMARDLEQGDVSETIRVFFEQSKSFPPAAKSLLTIQEVDEFLLRLSKLTKEDEQQQALQDIASRCTANDLKCIIRLIKHDLKMNSGAKHVLDALDPNAYEAFKASRNLQDVVERVLHNAQEVEKEPGQRRALSVQASLMTPVQPMLAEACKSVEYAMKKCPNGMFSEIKYDGERVQVHKNGDHFSYFSRSLKPVLPHKVAHFKDYIPQAFPGGHSMILDSEVLLIDNKTGKPLPFGTLGVHKKAAFQDANVCLFVFDCIYFNDVSLMDRPLCERRKFLHDNMVEIPNRIMFSEMKRVTKALDLADMITRVIQEGLEGLVLKDVKGTYEPGKRHWLKVKKDYLNEGAMADTADLVVLGAFYGQGSKGGMMSIFLMGCYDPGSQKWCTVTKCAGGHDDATLARLQNELDMVKISKDPSKIPSWLKVNKIYYPDFIVPDPKKAAVWEITGAEFSKSEAHTADGISIRFPRCTRIRDDKDWKSATNLPQLKELYQLSKEKADFTVVAGDEGSSTTGGSSEENKGPSGSAVSRKAPSKPSASTKKAEGKLSNSNSKDGNMQTAKPSAMKVGEKLATKSSPVKVGEKRKAADETLCQTKVLLDIFTGVRLYLPPSTPDFSRLRRYFVAFDGDLVQEFDMTSATHVLGSRDKNPAAQQVSPEWIWACIRKRRLVAPC
On to B1, for which the binding entry in test [1] and in test [2] was “binds” each time.
